Measured values published in paper PMC7521923.
No constants are given. Whether binding was seen depends on the method and setting. Binding seen in cells or lysates may run through a third protein. These calls come from enrichment with a bait or labelling near it, and not all partners need be listed. Where a sequence is shown, tags or fusion partners need not be part of it.

Target: T1, TMEM79-Myc-Flag (mouse) (UniProt Q9D709)
T1 sequence: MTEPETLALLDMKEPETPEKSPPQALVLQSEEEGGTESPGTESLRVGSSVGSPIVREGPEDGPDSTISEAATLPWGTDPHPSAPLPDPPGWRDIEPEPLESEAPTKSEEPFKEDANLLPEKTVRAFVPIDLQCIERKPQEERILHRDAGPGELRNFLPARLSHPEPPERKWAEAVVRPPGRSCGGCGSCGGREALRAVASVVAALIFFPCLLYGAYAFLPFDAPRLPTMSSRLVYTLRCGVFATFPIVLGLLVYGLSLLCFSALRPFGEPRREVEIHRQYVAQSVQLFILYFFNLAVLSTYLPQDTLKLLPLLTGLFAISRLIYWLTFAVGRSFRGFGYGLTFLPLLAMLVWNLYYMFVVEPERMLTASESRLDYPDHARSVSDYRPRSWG
Test: affinity purification with mass spectrometry; tandem affinity purification from HEK293T cells stably expressing TMEM79-Myc-Flag (EGFP cells as control): anti-Flag M2 gel 4 h at 4°C, Flag peptide elution, anti-c-Myc agarose overnight at 4°C, c-Myc peptide elution; visible silver-stained gel bands analysed by mass spectrometry

binding: binds
B1: USP8 (endogenous) (enzyme, UniProt P40818 1-1118)
chain: MPAVASVPKELYLSSSLKDLNKKTEVKPEKISTKSYVHSALKIFKTAEECRLDRDEERAYVLYMKYVTVYNLIKKRPDFKQQQDYFHSILGPGNIKKAVEEAERLSESLKLRYEEAEVRKKLEEKDRQEEAQRLQQKRQETGREDGGTLAKGSLENVLDSKDKTQKSNGEKNEKCETKEKGAITAKELYTMMTDKNISLIIMDARRMQDYQDSCILHSLSVPEEAISPGVTASWIEAHLPDDSKDTWKKRGNVEYVVLLDWFSSAKDLQIGTTLRSLKDALFKWESKTVLRNEPLVLEGGYENWLLCYPQYTTNAKVTPPPRRQNEEVSISLDFTYPSLEESIPSKPAAQTPPASIEVDENIELISGQNERMGPLNISTPVEPVAASKSDVSPIIQPVPSIKNVPQIDRTKKPAVKLPEEHRIKSESTNHEQQSPQSGKVIPDRSTKPVVFSPTLMLTDEEKARIHAETALLMEKNKQEKELRERQQEEQKEKLRKEEQEQKAKKKQEAEENEITEKQQKAKEEMEKKESEQAKKEDKETSAKRGKEITGVKRQSKSEHETSDAKKSVEDRGKRCPTPEIQKKSTGDVPHTSVTGDSGSGKPFKIKGQPESGILRTGTFREDTDDTERNKAQREPLTRARSEEMGRIVPGLPSGWAKFLDPITGTFRYYHSPTNTVHMYPPEMAPSSAPPSTPPTHKAKPQIPAERDREPSKLKRSYSSPDITQAIQEEEKRKPTVTPTVNRENKPTCYPKAEISRLSASQIRNLNPVFGGSGPALTGLRNLGNTCYMNSILQCLCNAPHLADYFNRNCYQDDINRSNLLGHKGEVAEEFGIIMKALWTGQYRYISPKDFKITIGKINDQFAGYSQQDSQELLLFLMDGLHEDLNKADNRKRYKEENNDHLDDFKAAEHAWQKHKQLNESIIVALFQGQFKSTVQCLTCHKKSRTFEAFMYLSLPLASTSKCTLQDCLRLFSKEEKLTDNNRFYCSHCRARRDSLKKIEIWKLPPVLLVHLKRFSYDGRWKQKLQTSVDFPLENLDLSQYVIGPKNNLKKYNLFSVSNHYGGLDGGHYTAYCKNAARQRWFKFDDHEVSDISVSSVKSSAAYILFYTSLGPRVTDVAT
